Experimental data published in patent US20130281314A1.
These are yes or no findings as the source states them, for the method shown. Some entries that bind do so weakly or less than the wild type.

Protein sequences, listed by entry. Tags and fused reporters are not part of them. Lines headed by an entry give the natural chain unless they say otherwise; changes in a name come on top. Chains listed by the source or under a name are the forms on record and can include a tag or linker.
USP7catC223A (Q93009, form named): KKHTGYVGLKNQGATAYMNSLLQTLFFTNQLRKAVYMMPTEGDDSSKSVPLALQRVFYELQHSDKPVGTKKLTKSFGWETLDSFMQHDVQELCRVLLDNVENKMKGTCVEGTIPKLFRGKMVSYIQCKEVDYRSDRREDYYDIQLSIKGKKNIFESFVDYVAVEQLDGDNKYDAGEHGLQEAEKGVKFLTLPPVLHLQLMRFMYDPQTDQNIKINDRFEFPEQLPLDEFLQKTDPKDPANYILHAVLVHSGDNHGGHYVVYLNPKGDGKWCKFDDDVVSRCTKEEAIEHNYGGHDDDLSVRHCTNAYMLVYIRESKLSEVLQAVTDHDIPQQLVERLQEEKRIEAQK

Molecular target: USP7catC223A (UniProt Q93009)
Assay: protein ELISA, His-tagged variant on captured biotinylated USP7catC223A

| binding | Binder |
| --- | --- |
| binds | U7Ub25.54 (designed binder) ubiquitin variant: MQIFVKFRTGKTYTLEVEPSDTIENVKAKIQDKLGIPPDQQRLIFGGKLLEDGRTLSDYNIEKESTLHGVRRLRGG |
| binds | U7Ub25.58 (designed binder) ubiquitin variant: MQIFVKFRTGKTYTLEVEPSDTIENVKAKIQDKLGIPPDQQTLIFSGKLLEDGRTLSDYNIEKEATLHGIRRLRGG |
